Measured values taken from publication PMC3267021, “The Molecular Basis for the Endocytosis of Small R-SNAREs by the Clathrin Adaptor CALM” (Cell, 2011).
Numbering of substitutions follows the chain as printed. In names and notes the source's numbering stands. No constants are given. Whether binding was seen depends on the method and setting. Tags and fused reporters may be left off the sequences shown.

T1: GST-VAMP8 (VAMP8 residues 1-76, full cytoplasmic portion) (mouse) (UniProt O70404)
T1 sequence: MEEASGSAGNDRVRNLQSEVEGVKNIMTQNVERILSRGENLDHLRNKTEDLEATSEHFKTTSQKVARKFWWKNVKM

T2: GSTVAMP8 L16PV23P (mouse) (UniProt O70404)
T2 sequence: T1 sequence with L16P, V23P

T3: GSTVAMP8 L44PL51P (mouse) (UniProt O70404)
T3 sequence: T1 sequence with L44P, L51P

B1: His6MycCALM_(ANTH) L219S (domain or fragment, UniProt O55012 1-289)
chain: MSGQSLTDRITAAQHSVTGSAVSKTVCKATTHEIMGPKKKHLDYLIQCTNEMNVNIPQLADSLFERTTNSSWVVVFKSLITTHHLMVYGNERFIQYLASRNTLFNLSNFLDKSGLQGYDMSTFIRRYSRYLNEKAVSYRQVAFDFTKVKRGADGVMRTMNTEKLLKTVPIIQNQMDALLDFNVNSNELTNGVINAAFMLLFKDAIRLFAAYNEGIINLSEKYFDMKKNQCKEGLDIYKKFLTRMTRISEFLKVAEQVGIDRGDIPDLSQAPSSLLDALEQHLASLEGKK
B2: His6MycCALM_(ANTH) F240A (domain or fragment, UniProt O55012 1-289)
chain: B1 chain with S219L, F240A
B3: His6MycCALM_(ANTH) M244K (domain or fragment, UniProt O55012 1-289)
chain: B1 chain with S219L, M244K
B4: His6MycCALM_(ANTH) I247D (domain or fragment, UniProt O55012 1-289)
chain: B1 chain with S219L, I247D
B5: His6MycCALM_(ANTH) L251S (domain or fragment, UniProt O55012 1-289)
chain: B1 chain with S219L, L251S
B6: SNAP23, GST cleaved (protein, UniProt O00161 1-211)
chain: MDNLSSEEIQQRAHQITDESLESTRRILGLAIESQDAGIKTITMLDEQKEQLNRIEEGLDQINKDMRETEKTLTELNKCCGLCVCPCNRTKNFESGKAYKTTWGDGGENSPCNVVSKQPGPVTNGQLQQPTTGAASGGYIKRITNDAREDEMEENLTQVGSILGNLKDMALNIGNEIDAQNPQIKRITDKADTNRDRIDIANARAKKLIDS
B7: syntaxin3 (residues 195-253), GST cleaved (domain or fragment, human, UniProt Q13277 195-253, looked up)
chain: EGRHKDIVRLESSIKELHDMFMDIAMLVENQGEMLDNIELNVMHTVDHVEKARDETKKA
notes: syntaxin3, human, residues 195-253; Construct pGEX 4T1syntaxin3_((195-253)) (human); also called syntaxin3_((195-253)); Synatxin3(195–253); source: E. coli BL21(DE3) pLysS, purified (glutathione sepharose, thrombin cleavage of GST); not shown: GST, N-terminal, cleaved
B8: CALM_(ANTH(1-264)), GST cleaved (domain or fragment, rat, UniProt O55012 1-264, looked up)
chain: MSGQSLTDRITAAQHSVTGSAVSKTVCKATTHEIMGPKKKHLDYLIQCTNEMNVNIPQLADSLFERTTNSSWVVVFKSLITTHHLMVYGNERFIQYLASRNTLFNLSNFLDKSGLQGYDMSTFIRRYSRYLNEKAVSYRQVAFDFTKVKRGADGVMRTMNTEKLLKTVPIIQNQMDALLDFNVNSNELTNGVINAAFMLLFKDAIRLFAAYNEGIINLLEKYFDMKKNQCKEGLDIYKKFLTRMTRISEFLKVAEQVGIDRGDI
notes: source: E. coli BL21(DE3) pLysS, purified (glutathione sepharose, thrombin cleavage of GST, S200 gel filtration); not shown: GST, N-terminal, cleaved

Columns and labels:
[1] = molecular target: T1, GST-VAMP8 (VAMP8 residues 1-76, full cytoplasmic portion) (mouse); experiment: pull-down; GST-tagged bait (SNARE or preformed, purified 1:1:1 SNARE complex, 2 nmoles) on glutathione beads, His6Myc-tagged prey; 20 mM HEPES pH 7.4, 150 mM NaCl, 4 mM DTT, 4 mM β-mercaptoethanol, 0.1% NP-40, 0.05% BSA; 4°C overnight; Coomassie gel and anti-myc western blot; both purified
[2] = molecular target: T1, GST-VAMP8 (VAMP8 residues 1-76, full cytoplasmic portion) (mouse); experiment: ITC; VPiTC; 2 mM His6MycCALM_(ANTH) (WT or mutant) or GST cleaved Epsin_(ENTH) titrated in 37 injections of 4-8 μL into 0.15 mM GST-SNARE in the cell; 100 mM HEPES pH 7.4, 150 mM NaCl, 4 mM DTT; legends give a representative run with SEM of the fit, the text the average of all runs; both purified
[3] = molecular target: T2, GSTVAMP8 L16PV23P (mouse); experiment: pull-down; SNARE complex formation: GST-VAMP8 incubated with a three fold molar excess of SNAP23 and syntaxin3 at 4°C for 48 hr in 20 mM HEPES pH 7.4, 500 mM NaCl, 4 mM DTT, 0.5% NP-40; purified on glutathione-sepharose, then S200 gel filtration; both purified
[4] = molecular target: T3, GSTVAMP8 L44PL51P (mouse); experiment: as above

Binder	binding [1]	binding [2]	binding [3]	binding [4]
B1	no binding	no binding (tested: 2 mM titrated into 0.15 mM GST-SNARE)	–	–
B2	no binding	–	–	–
B3	no binding	no binding (tested: 2 mM titrated into 0.15 mM GST-SNARE)	–	–
B4	no binding	–	–	–
B5	no binding	–	–	–
B6	–	–	no binding	no binding
B7	–	–	no binding	no binding
B8	no binding	no binding (tested: 2 mM titrated into 0.15 mM GST-SNARE)	–	–
